Data source: PubChem BioAssay AID504744 (Drosophila RNAi Screening Center, 2011)

- Screen: 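Uncover factors, including feedback loops, that control dAkt activation in fly cells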 (primary screen)
- Cell system: Drosophila Kc167 cells
- Reagent: long dsRNA against Drosophila genes, 250 ng dsRNA per well of a 384-well plate
- Time to read-out: 3 days of knock-down, then overnight serum-free starvation before stimulation
- Challenge: bovine insulin at 387 nM for 10 minutes after 12 h without serum
- Detection: 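Per-well phospho-dAkt level from an in-cell fluorescent antibody stain, divided by a DNA-dye signal; log2 residuals turned into z-scores that take cell number into account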
- Call rule: 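Hit in the insulin screen when the two-replicate mean z-score is more extreme than plus or minus 2.5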
In all, the deposit lists about 23,000 reagents; below is an unselected part of those that have a named target and a result. In the full data, 98 (0.43%) got an active call. 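Only hit calls are given; the phospho-dAkt signals, z-scores and hit direction were not deposited.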

{"gene": "Ccn", "PubChem SID": "SID104189296", "Call": "inactive"}
{"gene": "Ccn", "PubChem SID": "SID104189298", "Call": "inactive"}
{"gene": "Ccn", "PubChem SID": "SID104189854", "Call": "inactive"}
{"gene": "Ccn", "PubChem SID": "SID104189855", "Call": "inactive"}
{"gene": "LUBEL", "PubChem SID": "SID104181933", "Call": "inactive"}
{"gene": "Reph", "PubChem SID": "SID104180426", "Call": "inactive"}
{"gene": "Reph", "PubChem SID": "SID104201615", "Call": "inactive"}
{"gene": "AkhR", "PubChem SID": "SID104183121", "Call": "inactive"}
{"gene": "Cyp12a5", "PubChem SID": "SID104196413", "Call": "inactive"}
{"gene": "Shaw", "PubChem SID": "SID104180225", "Call": "inactive"}
{"gene": "Shaw", "PubChem SID": "SID104180580", "Call": "inactive"}
{"gene": "Shaw", "PubChem SID": "SID104201139", "Call": "inactive"}
{"gene": "CG3356", "PubChem SID": "SID104184150", "Call": "inactive"}
{"gene": "Mtr4", "PubChem SID": "SID104183352", "Call": "inactive"}
{"gene": "GCC185", "PubChem SID": "SID104195285", "Call": "inactive"}
{"gene": "CG7745", "PubChem SID": "SID104186829", "Call": "inactive"}
{"gene": "CG14567", "PubChem SID": "SID104191520", "Call": "inactive"}
{"gene": "piwi", "PubChem SID": "SID104183384", "Call": "inactive"}
{"gene": "Hinfp", "PubChem SID": "SID104198276", "Call": "inactive"}
{"gene": "TwdlQ", "PubChem SID": "SID104194537", "Call": "inactive"}
{"gene": "dmpd", "PubChem SID": "SID104185884", "Call": "inactive"}
{"gene": "CG34326 (retired record)", "PubChem SID": "SID104198957", "Call": "inactive"}
{"gene": "CG9416", "PubChem SID": "SID104187131", "Call": "inactive"}
{"gene": "Pez", "PubChem SID": "SID104183189", "Call": "inactive"}
{"gene": "Abcd1", "PubChem SID": "SID104196949", "Call": "inactive"}
{"gene": "ntc", "PubChem SID": "SID104187958", "Call": "inactive"}
{"gene": "Nnp-1", "PubChem SID": "SID104181957", "Call": "inactive"}
{"gene": "luna", "PubChem SID": "SID104185045", "Call": "inactive"}
{"gene": "luna", "PubChem SID": "SID104186455", "Call": "inactive"}
{"gene": "luna", "PubChem SID": "SID104187128", "Call": "inactive"}
{"gene": "MtnB", "PubChem SID": "SID104202116", "Call": "inactive"}
{"gene": "CG32452", "PubChem SID": "SID104191373", "Call": "inactive"}
{"gene": "CG32452", "PubChem SID": "SID104201775", "Call": "inactive"}
{"gene": "Abca3", "PubChem SID": "SID104200338", "Call": "inactive"}
{"gene": "CG5172", "PubChem SID": "SID104199728", "Call": "inactive"}
{"gene": "Pfrx", "PubChem SID": "SID104198648", "Call": "inactive"}
{"gene": "Pfrx", "PubChem SID": "SID104199107", "Call": "inactive"}
{"gene": "Dlish", "PubChem SID": "SID104185808", "Call": "inactive"}

5 neighbouring entries already listed, for reference:
{"gene": "CG32452", "PubChem SID": "SID104191373", "Call": "inactive"}
{"gene": "CG32452", "PubChem SID": "SID104201775", "Call": "inactive"}
{"gene": "Abca3", "PubChem SID": "SID104200338", "Call": "inactive"}
{"gene": "CG5172", "PubChem SID": "SID104199728", "Call": "inactive"}
{"gene": "Pfrx", "PubChem SID": "SID104198648", "Call": "inactive"}

Next reagents:
{"gene": "ZnT86D", "PubChem SID": "SID104195883", "Call": "inactive"}
{"gene": "CG7694", "PubChem SID": "SID104196080", "Call": "inactive"}
{"gene": "Nedd8", "PubChem SID": "SID104181884", "Call": "inactive"}
{"gene": "DCX-EMAP", "PubChem SID": "SID104189804", "Call": "inactive"}
{"gene": "DCX-EMAP", "PubChem SID": "SID104189805", "Call": "inactive"}
{"gene": "CG15127", "PubChem SID": "SID104185594", "Call": "inactive"}
{"gene": "CG15127", "PubChem SID": "SID104186341", "Call": "inactive"}
{"gene": "CG14609", "PubChem SID": "SID104192345", "Call": "inactive"}
{"gene": "CG11608", "PubChem SID": "SID104194126", "Call": "inactive"}
{"gene": "msd1", "PubChem SID": "SID104188175", "Call": "inactive"}
{"gene": "CG4098", "PubChem SID": "SID104190191", "Call": "inactive"}
{"gene": "Osi19", "PubChem SID": "SID104192361", "Call": "inactive"}
{"gene": "CG3598", "PubChem SID": "SID104198263", "Call": "inactive"}
{"gene": "Atg8b", "PubChem SID": "SID104194293", "Call": "inactive"}
{"gene": "CG13458", "PubChem SID": "SID104189797", "Call": "inactive"}
{"gene": "tacc", "PubChem SID": "SID104191811", "Call": "inactive"}
{"gene": "tacc", "PubChem SID": "SID104192180", "Call": "inactive"}
{"gene": "CG15080", "PubChem SID": "SID104186303", "Call": "inactive"}
{"gene": "TotZ", "PubChem SID": "SID104193242", "Call": "inactive"}
